The supplement of paper PMC10849652
Some of the results follow.

Protein sequences, listed by entry. Tags and fused reporters are not part of them. Lines headed by an entry give the natural chain unless they say otherwise; changes in a name come on top.
UniProt Q9BZX2: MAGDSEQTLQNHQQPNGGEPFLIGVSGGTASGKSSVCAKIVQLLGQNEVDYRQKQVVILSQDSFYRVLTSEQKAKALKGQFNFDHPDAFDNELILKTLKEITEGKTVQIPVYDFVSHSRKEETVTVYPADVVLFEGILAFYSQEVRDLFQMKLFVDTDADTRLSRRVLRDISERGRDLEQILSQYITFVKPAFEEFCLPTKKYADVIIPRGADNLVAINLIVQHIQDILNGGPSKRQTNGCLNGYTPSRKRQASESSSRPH
UniProt Q96B02: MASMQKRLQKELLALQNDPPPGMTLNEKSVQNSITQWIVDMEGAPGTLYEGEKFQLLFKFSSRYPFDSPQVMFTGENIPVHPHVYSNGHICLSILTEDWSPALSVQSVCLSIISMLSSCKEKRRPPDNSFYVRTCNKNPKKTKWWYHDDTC
UniProt Q8WVY7: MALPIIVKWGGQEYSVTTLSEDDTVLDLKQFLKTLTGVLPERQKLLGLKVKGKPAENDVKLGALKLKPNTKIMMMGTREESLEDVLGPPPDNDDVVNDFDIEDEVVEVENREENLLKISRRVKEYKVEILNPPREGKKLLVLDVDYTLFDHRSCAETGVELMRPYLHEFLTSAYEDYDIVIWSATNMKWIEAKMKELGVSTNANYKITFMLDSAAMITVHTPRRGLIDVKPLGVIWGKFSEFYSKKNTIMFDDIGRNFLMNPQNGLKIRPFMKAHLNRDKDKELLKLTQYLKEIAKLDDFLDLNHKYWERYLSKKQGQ
UniProt Q14157: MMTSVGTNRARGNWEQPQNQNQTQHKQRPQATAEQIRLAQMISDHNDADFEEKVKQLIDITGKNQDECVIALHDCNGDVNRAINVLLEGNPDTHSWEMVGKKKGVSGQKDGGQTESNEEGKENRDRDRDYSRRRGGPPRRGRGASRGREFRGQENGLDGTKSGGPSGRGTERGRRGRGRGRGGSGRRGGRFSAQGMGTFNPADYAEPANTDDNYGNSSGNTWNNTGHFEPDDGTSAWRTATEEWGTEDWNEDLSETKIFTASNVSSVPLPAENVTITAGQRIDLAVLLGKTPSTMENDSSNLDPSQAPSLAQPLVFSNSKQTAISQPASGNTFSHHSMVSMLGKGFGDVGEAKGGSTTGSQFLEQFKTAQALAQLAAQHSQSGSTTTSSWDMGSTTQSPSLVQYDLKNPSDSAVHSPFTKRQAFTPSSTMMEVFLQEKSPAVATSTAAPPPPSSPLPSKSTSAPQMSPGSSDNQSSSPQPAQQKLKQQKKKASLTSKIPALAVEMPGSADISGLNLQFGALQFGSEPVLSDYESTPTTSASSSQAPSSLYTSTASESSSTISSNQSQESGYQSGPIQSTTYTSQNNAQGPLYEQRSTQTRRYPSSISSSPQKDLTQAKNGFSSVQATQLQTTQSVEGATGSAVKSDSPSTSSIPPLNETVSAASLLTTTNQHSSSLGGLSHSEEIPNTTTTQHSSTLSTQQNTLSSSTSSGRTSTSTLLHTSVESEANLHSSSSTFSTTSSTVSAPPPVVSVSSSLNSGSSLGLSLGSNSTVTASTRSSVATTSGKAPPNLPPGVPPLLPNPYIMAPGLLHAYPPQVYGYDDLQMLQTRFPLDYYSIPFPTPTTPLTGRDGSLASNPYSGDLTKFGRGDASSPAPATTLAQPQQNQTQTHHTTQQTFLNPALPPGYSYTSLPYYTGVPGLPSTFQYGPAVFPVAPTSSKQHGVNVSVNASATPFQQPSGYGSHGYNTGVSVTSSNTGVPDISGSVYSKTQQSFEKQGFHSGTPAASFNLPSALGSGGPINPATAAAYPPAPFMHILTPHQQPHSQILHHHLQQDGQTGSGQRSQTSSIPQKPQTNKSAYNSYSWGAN
UniProt Q9UBT2: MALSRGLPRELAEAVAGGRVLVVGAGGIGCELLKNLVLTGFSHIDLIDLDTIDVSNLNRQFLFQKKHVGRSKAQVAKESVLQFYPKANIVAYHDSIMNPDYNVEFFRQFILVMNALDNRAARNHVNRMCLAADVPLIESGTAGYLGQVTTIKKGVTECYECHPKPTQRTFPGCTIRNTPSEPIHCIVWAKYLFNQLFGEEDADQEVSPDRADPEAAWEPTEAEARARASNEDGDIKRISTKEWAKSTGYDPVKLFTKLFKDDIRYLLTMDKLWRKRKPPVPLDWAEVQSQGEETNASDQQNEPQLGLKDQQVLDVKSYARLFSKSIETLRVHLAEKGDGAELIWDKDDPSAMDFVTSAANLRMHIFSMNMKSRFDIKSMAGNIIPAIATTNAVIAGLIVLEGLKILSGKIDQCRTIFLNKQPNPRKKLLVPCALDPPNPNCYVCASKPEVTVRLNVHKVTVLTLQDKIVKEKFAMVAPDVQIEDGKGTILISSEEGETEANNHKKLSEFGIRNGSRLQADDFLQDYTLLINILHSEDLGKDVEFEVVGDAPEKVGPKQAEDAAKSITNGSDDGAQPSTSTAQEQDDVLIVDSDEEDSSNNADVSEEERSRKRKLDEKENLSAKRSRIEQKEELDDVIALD
UniProt P51965: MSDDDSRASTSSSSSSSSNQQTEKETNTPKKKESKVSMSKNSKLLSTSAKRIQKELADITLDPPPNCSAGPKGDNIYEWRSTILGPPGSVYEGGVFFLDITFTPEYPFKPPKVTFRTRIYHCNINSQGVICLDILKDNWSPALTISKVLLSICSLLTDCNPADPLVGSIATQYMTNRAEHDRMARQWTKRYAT
UniProt Q9NZ09: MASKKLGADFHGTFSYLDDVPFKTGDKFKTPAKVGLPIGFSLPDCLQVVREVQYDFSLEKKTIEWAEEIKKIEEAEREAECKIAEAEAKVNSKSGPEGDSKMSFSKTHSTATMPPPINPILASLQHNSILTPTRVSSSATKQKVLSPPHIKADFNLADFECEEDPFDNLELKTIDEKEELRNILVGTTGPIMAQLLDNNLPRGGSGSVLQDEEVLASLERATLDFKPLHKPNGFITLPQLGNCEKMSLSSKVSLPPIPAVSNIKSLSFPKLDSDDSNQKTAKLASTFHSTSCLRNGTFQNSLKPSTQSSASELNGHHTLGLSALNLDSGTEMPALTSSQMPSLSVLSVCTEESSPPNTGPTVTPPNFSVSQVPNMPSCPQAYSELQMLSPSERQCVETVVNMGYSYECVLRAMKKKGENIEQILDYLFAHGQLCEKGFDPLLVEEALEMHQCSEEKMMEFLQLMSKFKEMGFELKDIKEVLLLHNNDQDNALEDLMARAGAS
UniProt Q92575: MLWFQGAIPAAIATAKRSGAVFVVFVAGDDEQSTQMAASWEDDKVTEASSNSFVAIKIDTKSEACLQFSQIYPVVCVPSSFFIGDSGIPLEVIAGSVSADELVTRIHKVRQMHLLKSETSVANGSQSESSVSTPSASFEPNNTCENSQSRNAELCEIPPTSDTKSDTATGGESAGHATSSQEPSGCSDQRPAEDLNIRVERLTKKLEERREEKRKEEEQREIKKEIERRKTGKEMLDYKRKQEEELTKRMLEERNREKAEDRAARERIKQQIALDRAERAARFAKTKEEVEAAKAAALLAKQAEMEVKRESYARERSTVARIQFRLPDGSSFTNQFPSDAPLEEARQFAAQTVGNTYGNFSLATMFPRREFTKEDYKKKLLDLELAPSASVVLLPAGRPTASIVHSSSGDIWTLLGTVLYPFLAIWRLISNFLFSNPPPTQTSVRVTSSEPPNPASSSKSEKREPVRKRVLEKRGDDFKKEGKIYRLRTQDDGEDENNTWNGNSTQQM
UniProt P61077: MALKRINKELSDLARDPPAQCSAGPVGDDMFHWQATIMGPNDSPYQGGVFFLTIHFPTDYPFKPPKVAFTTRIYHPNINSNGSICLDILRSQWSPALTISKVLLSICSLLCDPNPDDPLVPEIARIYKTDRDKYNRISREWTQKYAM
UniProt Q96LJ8: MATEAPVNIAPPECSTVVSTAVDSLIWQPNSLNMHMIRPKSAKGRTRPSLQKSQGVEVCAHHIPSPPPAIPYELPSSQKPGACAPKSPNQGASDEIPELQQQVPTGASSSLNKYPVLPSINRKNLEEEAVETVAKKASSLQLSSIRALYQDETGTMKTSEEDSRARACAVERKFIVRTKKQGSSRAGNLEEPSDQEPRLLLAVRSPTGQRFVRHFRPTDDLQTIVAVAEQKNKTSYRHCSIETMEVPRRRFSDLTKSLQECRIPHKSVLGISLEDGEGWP
UniProt Q9BRA2: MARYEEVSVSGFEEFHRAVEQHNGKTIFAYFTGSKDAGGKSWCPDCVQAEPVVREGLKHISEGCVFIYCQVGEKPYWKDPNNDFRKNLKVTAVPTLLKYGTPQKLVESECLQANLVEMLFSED
UniProt P61081: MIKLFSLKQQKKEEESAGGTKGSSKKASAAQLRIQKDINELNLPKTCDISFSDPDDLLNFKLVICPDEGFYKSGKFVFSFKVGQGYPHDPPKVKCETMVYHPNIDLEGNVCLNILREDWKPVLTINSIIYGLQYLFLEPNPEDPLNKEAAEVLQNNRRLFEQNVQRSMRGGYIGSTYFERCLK
UniProt P63146, whole entry, looked up: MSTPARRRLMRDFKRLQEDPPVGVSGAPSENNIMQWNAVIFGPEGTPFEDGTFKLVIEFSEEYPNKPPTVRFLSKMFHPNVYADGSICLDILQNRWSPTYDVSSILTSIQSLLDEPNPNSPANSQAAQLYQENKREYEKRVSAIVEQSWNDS
UniProt Q9GZX9: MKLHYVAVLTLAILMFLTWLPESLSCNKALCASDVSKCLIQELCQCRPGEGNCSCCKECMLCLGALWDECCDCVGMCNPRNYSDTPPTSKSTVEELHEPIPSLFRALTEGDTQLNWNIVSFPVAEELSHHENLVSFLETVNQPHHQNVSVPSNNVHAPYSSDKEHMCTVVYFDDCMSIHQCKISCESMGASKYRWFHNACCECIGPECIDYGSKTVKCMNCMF
UniProt Q9H832: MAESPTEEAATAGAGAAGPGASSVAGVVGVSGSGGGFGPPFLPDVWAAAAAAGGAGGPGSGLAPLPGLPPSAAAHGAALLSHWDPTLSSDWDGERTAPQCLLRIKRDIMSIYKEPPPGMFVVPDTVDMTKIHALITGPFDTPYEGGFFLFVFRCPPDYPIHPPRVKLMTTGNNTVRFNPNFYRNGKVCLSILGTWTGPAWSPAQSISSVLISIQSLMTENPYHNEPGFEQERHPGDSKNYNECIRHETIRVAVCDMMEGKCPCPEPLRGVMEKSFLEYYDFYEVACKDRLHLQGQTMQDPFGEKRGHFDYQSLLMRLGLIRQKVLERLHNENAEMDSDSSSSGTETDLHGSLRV
UniProt P68371, whole entry, looked up: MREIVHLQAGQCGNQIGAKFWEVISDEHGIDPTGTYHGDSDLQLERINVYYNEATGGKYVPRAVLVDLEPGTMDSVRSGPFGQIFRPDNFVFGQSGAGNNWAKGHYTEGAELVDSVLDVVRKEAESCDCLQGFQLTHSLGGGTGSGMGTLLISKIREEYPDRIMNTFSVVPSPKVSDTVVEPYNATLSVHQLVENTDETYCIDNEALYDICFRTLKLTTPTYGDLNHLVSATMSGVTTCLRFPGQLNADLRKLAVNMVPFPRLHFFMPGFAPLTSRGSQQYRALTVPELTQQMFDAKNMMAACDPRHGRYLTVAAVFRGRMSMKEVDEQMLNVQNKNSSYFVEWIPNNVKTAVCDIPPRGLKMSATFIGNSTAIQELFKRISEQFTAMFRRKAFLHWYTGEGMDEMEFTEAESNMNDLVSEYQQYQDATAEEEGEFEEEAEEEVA
UniProt P04818: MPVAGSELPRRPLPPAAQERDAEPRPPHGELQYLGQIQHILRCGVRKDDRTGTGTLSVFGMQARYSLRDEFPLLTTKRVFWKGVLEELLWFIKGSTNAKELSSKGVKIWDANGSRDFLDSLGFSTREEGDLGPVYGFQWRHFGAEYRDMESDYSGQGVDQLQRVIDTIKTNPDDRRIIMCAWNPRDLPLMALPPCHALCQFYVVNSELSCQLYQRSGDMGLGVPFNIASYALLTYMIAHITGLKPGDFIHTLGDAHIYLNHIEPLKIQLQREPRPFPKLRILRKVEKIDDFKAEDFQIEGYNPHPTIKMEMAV
UniProt Q8NBM4: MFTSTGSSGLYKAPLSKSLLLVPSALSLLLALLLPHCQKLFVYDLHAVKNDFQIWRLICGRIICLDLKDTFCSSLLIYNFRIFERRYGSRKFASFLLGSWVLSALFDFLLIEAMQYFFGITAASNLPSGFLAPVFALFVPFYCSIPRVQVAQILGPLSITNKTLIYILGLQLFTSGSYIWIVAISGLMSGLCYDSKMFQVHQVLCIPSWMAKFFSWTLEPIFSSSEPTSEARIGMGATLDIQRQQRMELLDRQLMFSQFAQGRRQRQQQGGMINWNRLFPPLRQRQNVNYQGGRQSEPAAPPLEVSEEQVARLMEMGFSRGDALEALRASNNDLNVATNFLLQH
UniProt Q12792, whole entry, looked up: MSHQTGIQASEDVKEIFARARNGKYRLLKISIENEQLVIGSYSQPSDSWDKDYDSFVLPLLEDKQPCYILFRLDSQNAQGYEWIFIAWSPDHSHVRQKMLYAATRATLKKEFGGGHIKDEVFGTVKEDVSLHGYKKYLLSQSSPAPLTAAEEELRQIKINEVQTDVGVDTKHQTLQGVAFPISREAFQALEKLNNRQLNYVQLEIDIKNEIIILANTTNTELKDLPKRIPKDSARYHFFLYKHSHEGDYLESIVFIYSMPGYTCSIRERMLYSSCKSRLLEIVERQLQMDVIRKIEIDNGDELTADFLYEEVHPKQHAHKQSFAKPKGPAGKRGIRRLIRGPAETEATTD

What was measured:
Assay in all cases: log2 fold change, soluble protein after heating vs DMSO (PISA); higher = thermal stabilisation; K562 lysate, 10 uM; active = over 0.2 and 3.5 SD of the protein, either way, in both replicates (recomputed)
[1] = compound: NCC(=O)Nc1ccc(-n2nc(C(F)(F)F)cc2-c2ccc3c(ccc4ccccc43)c2)cc1
Method in brief: (§1)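 Thermal stability, expressed as log-two fold change relative to solvent controls, is given from duplicates. Crude K562 extract in PBS pH 7.4 with 1 mM MgCl2, at 1 mg/mL protein, was treated with 10 μM compound for 30 min and heated in aliquots for 3 min across 48°C-58°C. After pooling, adjustment to 0.5% NP-40 at 4°C and centrifugation at 21,000xg for 90 min, supernatant protein was measured by TMTpro 16plex LC-MS/MS with channel sums equalised.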

vorinostat = compound: O=C(CCCCCCC(=O)Nc1ccccc1)NO [vorinostat]
Method in brief: as §1

silmitasertib = compound: O=C(O)c1ccc2c(c1)nc(Nc1cccc(Cl)c1)c1ccncc12 [silmitasertib]
Method in brief: as §1

[2] = compound: O=C1NC(=O)C(c2cnc3ccccn23)=C1c1cn2c3c(cc(F)cc13)CN(C(=O)N1CCCCC1)CC2
Method in brief: as §1

entospletinib = compound: c1cn2cc(-c3ccc4cn[nH]c4c3)nc(Nc3ccc(N4CCOCC4)cc3)c2n1 [entospletinib]
Method in brief: as §1

Row | Target | log2 fold change [1] | log2 fold change (vorinostat) | log2 fold change (silmitasertib) | log2 fold change [2] | log2 fold change (entospletinib)
1 | UBIAD1 (UniProt Q9Y5Z9) | inactive: -0.061 | inactive: 0.042 | inactive: 0.04 | inactive: 0.032 | inactive: 0.058
2 | TXNIP (UniProt Q9H3M7) | inactive: -0.076 | active: -0.399 | inactive: 0.04 | inactive: -0.051 | inactive: 0.024
3 | UCK2 (UniProt Q9BZX2) | inactive: -0.051 | inactive: -0.171 | inactive: -0.022 | inactive: -0.025 | inactive: 0.023
4 | UBE2T (UniProt Q9NPD8) | inactive: 0.031 | inactive: -0.09 | inactive: 0.033 | inactive: -0.005 | inactive: 0.013
5 | UBXN2A (UniProt P68543) | inactive: -0.011 | inactive: -0.021 | inactive: 0.015 | inactive: -0.002 | 
6 | TUBB3 (UniProt Q13509) | inactive: -0.012 | active: -0.688 | inactive: 0.04 | inactive: 0.006 | inactive: -0.002
7 | TUBB1 (UniProt Q9H4B7) | inactive: -0.038 | active: -0.326 | inactive: -0.003 | inactive: 0.033 | inactive: 0.011
8 | UBXN1 (UniProt Q04323) | inactive: -0.006 | inactive: 0.051 | inactive: 0.008 | inactive: -0.053 | inactive: -0.008
9 | TXNDC16 (UniProt Q9P2K2) | inactive: 0.046 | inactive: 0.08 | inactive: -0.039 | inactive: 0.041 | 
10 | UBE2W isoform 3 (UniProt Q96B02) | inactive: 0.092 | inactive: -0.012 | inactive: 0.144 |  | 
11 | UBLCP1 (UniProt Q8WVY7) | inactive: -0.143 | inactive: -0.017 | inactive: 0.032 | inactive: -0.016 | inactive: 0.004
12 | UBE4B isoform 4 (UniProt O95155) | inactive: 0.008 | inactive: -0.095 | inactive: 0.013 | inactive: 0.005 | inactive: -0.012
13 | UBAP2L isoform 5 (UniProt Q14157) | inactive: 0.013 | inactive: 0.126 | inactive: -0.037 | inactive: -0.018 | inactive: -0.042
14 | UBA2 (UniProt Q9UBT2) | inactive: 0.001 | inactive: 0.011 | inactive: 0.007 | inactive: -0.007 | inactive: 0.031
15 | UBE2F isoform 2 (UniProt Q969M7) | inactive: -0.003 | inactive: -0.011 | inactive: -0.03 | inactive: 0.019 | inactive: 0.026
16 | UBE3B (UniProt Q7Z3V4) | inactive: 0.117 | active: -0.838 | inactive: 0.061 | inactive: 0.007 | inactive: 0.115
17 | TULP3 isoform 2 (UniProt O75386) | inactive: -0.015 | inactive: -0.355 | inactive: 0.065 |  | 
18 | UBE4A isoform 2 (UniProt Q14139) | inactive: 0.007 | active: -0.257 | inactive: 0.019 | inactive: 0.029 | inactive: 0.026
19 | UBE2E1 (UniProt P51965) | inactive: -0.089 | inactive: 0.064 | inactive: 0.035 | inactive: -0.013 | inactive: 0.037
20 | UBAP2 (UniProt Q5T6F2) | inactive: 0.031 | inactive: 0.03 | inactive: -0.007 | inactive: 0 | inactive: -0.013
21 | UBAP1 (UniProt Q9NZ09) | inactive: -0.038 | inactive: -0.094 | inactive: -0.045 | inactive: 0.024 | inactive: -0.02
22 | TWISTNB (UniProt Q3B726) | inactive: -0.06 | inactive: -0.067 | inactive: 0.027 | inactive: 0.015 | inactive: 0.052
23 | UBTF (UniProt P17480) | inactive: -0.045 | active: -0.315 | inactive: 0.044 | inactive: -0.012 | inactive: 0.032
24 | UBXN4 (UniProt Q92575) | inactive: 0.036 | inactive: -0.124 | inactive: 0.024 | inactive: -0.021 | inactive: -0.117
25 | UCHL3 (UniProt P15374) | inactive: -0.07 | inactive: 0.024 | inactive: 0.019 | inactive: -0.032 | inactive: -0.052
26 | TUBE1 (UniProt Q9UJT0) | inactive: 0.024 | active: -0.264 | inactive: -0.049 | inactive: -0.036 | inactive: -0.027
27 | UBE2L6 (UniProt O14933) | inactive: -0.071 | active: -0.477 | inactive: 0.037 | inactive: 0 | inactive: -0.011

Row | Target | log2 fold change [1] | log2 fold change (vorinostat) | log2 fold change (silmitasertib) | log2 fold change [2] | log2 fold change (entospletinib)
28 | UBE2D3 isoform 3 (UniProt P61077) | inactive: -0.006 | inactive: -0.074 | inactive: -0.024 | inactive: 0.046 | inactive: 0.003
29 | UBXN10 (UniProt Q96LJ8) | inactive: -0.018 | active: -0.321 | inactive: -0.005 | inactive: -0.002 | inactive: 0
30 | UBP1 (UniProt Q9NZI7) | inactive: -0.002 | inactive: -0.182 | inactive: 0.008 | inactive: -0.01 | inactive: -0.002
31 | TXNDC17 (UniProt Q9BRA2) | inactive: -0.021 | inactive: 0.174 | inactive: 0 | inactive: 0.01 | inactive: 0.007
32 | TYW1 (UniProt Q9NV66) | inactive: 0.096 | inactive: 0.024 | inactive: -0.045 | inactive: 0.053 | inactive: -0.306
33 | TUBGCP2 isoform 4 (UniProt Q9BSJ2) | inactive: 0.03 | active: -0.32 | inactive: 0.051 | inactive: 0.046 | inactive: 0.042
34 | UBE2M (UniProt P61081) | inactive: -0.012 | inactive: 0.04 | inactive: 0.016 | inactive: 0.023 | inactive: 0.007
35 | TUFM (UniProt P49411) | inactive: 0.016 | inactive: -0.175 | inactive: 0.045 | inactive: 0.013 | inactive: 0.027
36 | UBE2B (UniProt P63146) | inactive: -0.082 | inactive: -0.1 | inactive: -0.025 | inactive: -0.004 | inactive: -0.028
37 | UBR4 (UniProt Q5T4S7) | inactive: 0 | inactive: -0.14 | inactive: 0.027 | inactive: -0.008 | inactive: 0.009
38 | TWSG1 (UniProt Q9GZX9) | inactive: 0.006 | inactive: 0.085 | inactive: -0.037 | inactive: -0.048 | inactive: 0.09
39 | UBR7 (UniProt Q8N806) | inactive: 0.01 | inactive: 0.101 | inactive: -0.022 | inactive: -0.01 | inactive: 0.002
40 | TUT7 (UniProt Q5VYS8) | inactive: -0.059 | inactive: -0.07 | inactive: -0.002 | inactive: 0 | inactive: -0.036
41 | UBE2Z (UniProt Q9H832) | inactive: 0.018 | inactive: 0.013 | inactive: -0.023 | inactive: -0.022 | inactive: 0.008
42 | TWNK (UniProt Q96RR1) | inactive: 0.119 | inactive: 0.27 | inactive: -0.106 | inactive: 0.067 | inactive: -0.043
43 | TUT4 (UniProt Q5TAX3) | inactive: 0.072 | active: -0.398 | inactive: 0.018 | inactive: -0.048 | inactive: -0.029
44 | UBL4A (UniProt P11441) | inactive: -0.036 | inactive: -0.016 | inactive: 0.04 | inactive: 0.007 | inactive: -0.011
45 | UBQLN4 (UniProt Q9NRR5) | inactive: -0.069 | inactive: 0.02 | inactive: 0.002 | inactive: 0.006 | inactive: -0.098
46 | TUBB4B (UniProt P68371) | inactive: 0.014 | active: -0.712 | inactive: 0.024 | inactive: -0.001 | inactive: 0.005
47 | UBE2J2 (UniProt Q8N2K1) | inactive: 0.141 | inactive: -0.301 | inactive: 0.03 | inactive: -0.092 | inactive: 0.065
48 | TXNDC9 (UniProt O14530) | inactive: -0.009 | inactive: 0.011 | inactive: 0.014 | inactive: 0 | inactive: 0.013
49 | UBE2N (UniProt P61088) | inactive: -0.036 | inactive: -0.051 | inactive: 0.005 | inactive: 0.028 | inactive: -0.056
50 | TYMS (UniProt P04818) | inactive: -0.02 | active: -0.231 | inactive: 0.009 | inactive: -0.005 | inactive: 0.031
51 | UBAC2 (UniProt Q8NBM4) | inactive: -0.04 | inactive: 0.067 | inactive: -0.04 | inactive: -0.104 | inactive: 0.102
52 | TWF1 (UniProt Q12792) | inactive: 0.036 | inactive: 0.023 | inactive: 0.132 | inactive: -0.064 | inactive: 0.002
53 | UBXN6 (UniProt Q9BZV1) | inactive: 0.04 | active: -0.28 | inactive: 0.018 | inactive: -0.026 | inactive: -0.009
54 | TUBA1C (UniProt Q9BQE3) | inactive: 0.019 | active: -0.256 | inactive: 0.013 | inactive: 0.006 | inactive: -0.014

Just log2 fold change (entospletinib) and log2 fold change (silmitasertib), for some of the entries so far:
Row	Target	log2 fold change (entospletinib)	log2 fold change (silmitasertib)
31	TXNDC17 (UniProt Q9BRA2)	inactive: 0.007	inactive: 0
46	TUBB4B (UniProt P68371)	inactive: 0.005	inactive: 0.024
